Among the data in PMC6238531, “The ER morphology-regulating lunapark protein induces the formation of stacked bilayer discs” (Life Science Alliance, 2018) are binding values, retold here.

These are yes or no findings as the source states them, for the method shown. Some results given as binding are weak or reduced against the parent protein; the word gives no strength.

The assay concerns the target T1, SBP-tagged full-length human Lnp (human, UniProt Q9C0E8 1-428).
T1 construct: lunapark (Lnp), human, full length; a tobacco etch virus protease cut site stands between Lnp and the SBP tag; Membrane protein with two TM segments, kept in 0.05% Triton X-100 in the pull-down; also called lunapark; SBP-tagged human Lnp; source: S. cerevisiae (pRS425, GAL1 promoter), purified in Triton X-100 (streptavidin resin, biotin elution, SEC on Superose 6); not shown: SBP, C-terminal, kept
T1 sequence (looked up): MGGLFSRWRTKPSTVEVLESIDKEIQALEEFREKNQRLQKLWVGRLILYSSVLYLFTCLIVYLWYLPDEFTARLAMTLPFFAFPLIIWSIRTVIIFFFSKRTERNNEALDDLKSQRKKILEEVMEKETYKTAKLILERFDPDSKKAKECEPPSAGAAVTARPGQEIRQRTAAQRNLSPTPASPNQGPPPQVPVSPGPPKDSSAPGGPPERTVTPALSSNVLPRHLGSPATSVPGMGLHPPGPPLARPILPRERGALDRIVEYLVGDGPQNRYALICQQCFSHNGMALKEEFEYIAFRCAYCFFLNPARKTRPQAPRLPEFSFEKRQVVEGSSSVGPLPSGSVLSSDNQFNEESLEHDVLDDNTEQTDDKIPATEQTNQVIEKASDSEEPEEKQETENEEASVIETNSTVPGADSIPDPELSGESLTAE
Description: pull-down; SBP-tagged human Lnp mixed with His10-tagged Lnp (molar ratio 1:3 or 1:5), 1 h at 4°C in 20 mM Hepes pH 7.5, 100 mM KCl, 1 mM dithiothreitol, 0.05% Triton X-100; held on streptavidin resin, washed, eluted with 2 mM biotin; SDS-PAGE and Coomassie blue staining; both purified.

In the case of “Lnp lacking the Zn2+-finger domain (ΔI275–F302) (from UniProt Q9C0E8 1-428)”, the binding result is “binds”.
